Among the data in paper PMC4163656 are binding values, retold here.

This assay addresses T1, HIRA fused to GFP or mCherry (tag not told for this co-immunoprecipitation) (Arabidopsis) (UniProt Q9LXN4).
T1 sequence: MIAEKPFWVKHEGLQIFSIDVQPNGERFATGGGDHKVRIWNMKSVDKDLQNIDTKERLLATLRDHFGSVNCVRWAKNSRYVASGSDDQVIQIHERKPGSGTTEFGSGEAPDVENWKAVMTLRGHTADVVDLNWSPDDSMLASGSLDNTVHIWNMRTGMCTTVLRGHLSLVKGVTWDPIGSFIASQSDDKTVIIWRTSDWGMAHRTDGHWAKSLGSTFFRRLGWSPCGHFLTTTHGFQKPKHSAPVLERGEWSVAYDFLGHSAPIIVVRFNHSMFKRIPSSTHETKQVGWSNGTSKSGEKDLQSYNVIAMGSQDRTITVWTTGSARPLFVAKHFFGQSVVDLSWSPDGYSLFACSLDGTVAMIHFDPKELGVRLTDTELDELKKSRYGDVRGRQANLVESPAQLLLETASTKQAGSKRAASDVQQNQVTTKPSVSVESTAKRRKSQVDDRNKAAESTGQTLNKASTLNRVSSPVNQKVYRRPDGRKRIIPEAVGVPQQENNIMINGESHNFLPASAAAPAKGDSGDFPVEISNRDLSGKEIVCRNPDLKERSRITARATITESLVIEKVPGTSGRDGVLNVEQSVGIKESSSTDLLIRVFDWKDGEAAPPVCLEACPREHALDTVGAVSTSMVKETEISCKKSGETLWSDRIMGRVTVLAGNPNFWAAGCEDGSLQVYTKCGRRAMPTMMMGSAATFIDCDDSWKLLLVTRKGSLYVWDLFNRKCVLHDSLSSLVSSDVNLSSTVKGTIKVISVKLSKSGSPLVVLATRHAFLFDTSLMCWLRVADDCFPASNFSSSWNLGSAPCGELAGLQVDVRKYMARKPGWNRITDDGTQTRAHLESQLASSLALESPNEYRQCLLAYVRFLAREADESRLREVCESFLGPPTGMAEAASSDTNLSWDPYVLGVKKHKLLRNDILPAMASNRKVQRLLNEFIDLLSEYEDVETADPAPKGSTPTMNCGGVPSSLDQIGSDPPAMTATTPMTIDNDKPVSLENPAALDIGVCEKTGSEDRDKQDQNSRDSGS
In words: co-IP; nuclei extracted from ten-day-old seedlings or four-week-old rosette leaves of transgenic Arabidopsis; tagged proteins pulled down using tag-specific antibodies (anti-GFP, anti-mCherry) and detected in western blot. A general note: In western blotting, separated proteins are transferred to a membrane and probed.

Results are given in words; binding and its absence hold for the method and conditions named. Binding seen in cells or lysates may run through a third protein. Some binding calls cover weakened binding; strength is not graded here. Where a sequence is shown, tags or fusion partners need not be part of it.

B1: ASF1A (tagged, tag not told) (protein, UniProt Q9C9M6 1-196)
chain: MSAIKITNVAVLHNPAPFVSPFQFEISYECLNSLKDDLEWKLIYVGSAEDETYDQLLESVLVGPVNVGNYRFVFQADPPDPSKIQEEDIIGVTVLLLTCSYMGQEFLRVGYYVNNDYEDEQLKEEPPTKVLIDKVQRNILSDKPRVTKFPIDFHPEEEQTAATAAPPEQSDEQQPNVNGEAQVLPDQSVEPKPEES
Regarding B1, the binding entry is given as “binds”.

B2: UBN2 fused to mCherry or GFP (protein, UniProt F4I700 1-717)
chain: MEDEPKLPTDDGPTFNESCKISSEILTAGDRKLLKVELLKEETTLVSWKKLMDEASKENGGLFVSAPERLLNANPNLEFRLAPGAQTENEMVNQPHPNRLNSVIAKIERLYMGKDGSDGEELDGAPDDDDYDTEDSFIDDAELDEYFEVDNSPIKHDGFFVNRGKLERIEPSATSNQQQPKKRRRKESAKPCGDVVDVSRKRAKMAKTAGGKDQSASPGPSSKKISNDSKTVQDSFSPLKAQNGNDSLVLENVKHTDKANHQPMNATSPKSKAAGSSGPLHPKCSSKSVHEQSNSPPGKSRPNVSAKSAVVRQQVNNGMPDLDIATESKTSIQISKKSGSNGRPKYSTLEKAIRNLEKLVAESRPPAATENQDADISSQAVKRGLPGDVKLHLAKVARIAYASQGEISGELINRLMGIVGHLIQIRSLKRNLKIMIDSIVTANREKDTRFQRIKSEITEMLKTQVPLVESQETNQEAGTSDDFQDVGSLGKSPVKKFVMDVALEEKLCDLYDVFVEGMDEHSGSQIRKLYSDLAQLWPNSLVDNHEIRRAICREKERRRALEGNIGKEMDQTKITKKKQTQLVPKSEGITYPDKTSGVEVKASVVLTATTTSLVDCQPAADSSFERSKQQHEKLKRTSSLSNPAAEGKKVRRKTEPALEETHLPAEKPLVLALKRQTHLKSKTHKQVQVHPQSKAHKQAQVHPKAKTQTPPDLNLPS
Consider B2, for which the binding entry is recorded as “binds”.
